The values that follow come from PMC5080453.

Amino acid sequences for entries named in this document (tags omitted). A change or cut given only in a name is not applied to a line headed by its entry.
UniProt P13497: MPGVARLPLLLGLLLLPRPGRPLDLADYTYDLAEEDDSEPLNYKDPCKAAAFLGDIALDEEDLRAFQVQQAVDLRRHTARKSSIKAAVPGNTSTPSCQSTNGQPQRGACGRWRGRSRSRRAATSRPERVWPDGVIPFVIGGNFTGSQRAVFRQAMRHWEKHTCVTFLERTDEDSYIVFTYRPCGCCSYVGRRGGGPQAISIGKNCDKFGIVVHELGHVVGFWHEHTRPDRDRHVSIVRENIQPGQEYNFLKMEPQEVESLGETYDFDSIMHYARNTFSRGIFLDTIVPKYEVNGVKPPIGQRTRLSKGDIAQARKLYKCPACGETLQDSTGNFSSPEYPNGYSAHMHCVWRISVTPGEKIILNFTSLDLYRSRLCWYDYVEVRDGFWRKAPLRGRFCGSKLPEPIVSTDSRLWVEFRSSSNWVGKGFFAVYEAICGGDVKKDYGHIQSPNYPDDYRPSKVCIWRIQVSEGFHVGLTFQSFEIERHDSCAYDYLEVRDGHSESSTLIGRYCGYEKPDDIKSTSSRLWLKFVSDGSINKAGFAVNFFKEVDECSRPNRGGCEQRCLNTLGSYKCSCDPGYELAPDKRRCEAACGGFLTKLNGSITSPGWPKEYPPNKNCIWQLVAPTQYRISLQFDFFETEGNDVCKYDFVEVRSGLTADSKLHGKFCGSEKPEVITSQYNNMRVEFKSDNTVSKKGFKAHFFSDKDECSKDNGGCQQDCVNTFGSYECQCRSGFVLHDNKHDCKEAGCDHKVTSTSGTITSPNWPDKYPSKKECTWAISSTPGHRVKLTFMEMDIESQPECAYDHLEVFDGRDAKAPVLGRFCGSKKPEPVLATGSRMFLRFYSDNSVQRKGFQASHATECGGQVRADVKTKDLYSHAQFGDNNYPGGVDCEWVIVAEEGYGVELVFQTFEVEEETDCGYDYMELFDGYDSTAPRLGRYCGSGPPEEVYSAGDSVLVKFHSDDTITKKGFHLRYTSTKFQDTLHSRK

No constants are given. Whether binding was seen depends on the method and setting.

The target in this experiment is mammalian tolloid (mTld) (UniProt P13497). Description: SPR; Biacore T200, CM5 chip; 2400 RU of mTlD immobilised by amine coupling; 500 nM Tsg or 500 nM ΔN-chordin injected; 25 °C, 10 mM Hepes, 150 mM NaCl, 3 mM EDTA, 0.005% Tween-20, pH 7.4, 30 μl/min; both purified. For orientation: In SPR one partner is held on a chip, and binding of the other changes the refractive index at the surface.

B1: human twisted gastrulation (Tsg), native (glycosylated) (protein, UniProt Q9GZX9 26-223)
chain: CNKALCASDVSKCLIQELCQCRPGEGNCSCCKECMLCLGALWDECCDCVGMCNPRNYSDTPPTSKSTVEELHEPIPSLFRALTEGDTQLNWNIVSFPVAEELSHHENLVSFLETVNQPHHQNVSVPSNNVHAPYSSDKEHMCTVVYFDDCMSIHQCKISCESMGASKYRWFHNACCECIGPECIDYGSKTVKCMNCMF
modifications: N-linked glycans (three predicted N-linked glycosylation sites)
Turning to B1, the binding entry is on record as “no binding (tested: 500 nM)”.
